Some of the results follow. Most entries show no effect beyond the scatter of the controls.
Compound: CN[C@@H]1C[C@H]2O[C@@](C)([C@@H]1OC)n1c3ccccc3c3c4c(c5c6ccccc6n2c5c31)C(=O)NC4 [staurosporine]
Assay: log2 fold change of tryptic peptide abundance, ligand vs vehicle (limited proteolysis) (log2 ratio); higher = more trypsin-susceptible (destabilized)
Settings: ligand concentration: 20 uM; sample: mouse liver crude lysate; replicate design: treated separately

By UniProt entry, the sequences of proteins in these tests, tags left out. Where a name states a change or a piece, a line headed by the entry shows the natural chain unless it says otherwise.
UniProt Q9DCT6, whole entry: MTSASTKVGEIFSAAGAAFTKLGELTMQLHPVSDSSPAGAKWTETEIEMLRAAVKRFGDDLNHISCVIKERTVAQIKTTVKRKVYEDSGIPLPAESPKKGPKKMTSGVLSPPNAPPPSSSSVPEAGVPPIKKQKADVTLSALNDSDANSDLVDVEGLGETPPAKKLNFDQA
UniProt Q9DBN4: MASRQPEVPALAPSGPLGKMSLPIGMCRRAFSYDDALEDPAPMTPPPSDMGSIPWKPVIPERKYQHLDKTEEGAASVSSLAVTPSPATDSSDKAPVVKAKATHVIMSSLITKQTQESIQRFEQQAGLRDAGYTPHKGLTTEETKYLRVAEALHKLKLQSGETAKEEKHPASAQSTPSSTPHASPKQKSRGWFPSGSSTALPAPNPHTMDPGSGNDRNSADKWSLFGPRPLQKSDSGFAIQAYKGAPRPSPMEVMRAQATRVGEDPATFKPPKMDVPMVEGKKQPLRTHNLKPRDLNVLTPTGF
UniProt Q9EQS3: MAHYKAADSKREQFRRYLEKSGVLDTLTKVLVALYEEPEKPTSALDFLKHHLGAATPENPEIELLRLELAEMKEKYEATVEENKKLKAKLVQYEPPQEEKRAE
UniProt Q9DAS9: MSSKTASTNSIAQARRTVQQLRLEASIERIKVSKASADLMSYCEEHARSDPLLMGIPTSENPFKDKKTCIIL
UniProt Q9DCL4: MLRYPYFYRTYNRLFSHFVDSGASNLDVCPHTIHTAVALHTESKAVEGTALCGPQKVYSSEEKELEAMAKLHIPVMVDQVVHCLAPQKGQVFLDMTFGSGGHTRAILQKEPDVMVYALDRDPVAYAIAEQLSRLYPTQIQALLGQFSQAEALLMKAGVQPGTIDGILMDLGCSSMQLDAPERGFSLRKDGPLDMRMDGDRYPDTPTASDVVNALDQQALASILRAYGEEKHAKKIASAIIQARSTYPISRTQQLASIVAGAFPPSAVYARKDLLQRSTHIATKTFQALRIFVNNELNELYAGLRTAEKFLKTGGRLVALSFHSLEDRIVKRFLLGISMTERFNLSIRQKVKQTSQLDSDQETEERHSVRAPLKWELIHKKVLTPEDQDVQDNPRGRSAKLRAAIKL
UniProt Q9EPX2: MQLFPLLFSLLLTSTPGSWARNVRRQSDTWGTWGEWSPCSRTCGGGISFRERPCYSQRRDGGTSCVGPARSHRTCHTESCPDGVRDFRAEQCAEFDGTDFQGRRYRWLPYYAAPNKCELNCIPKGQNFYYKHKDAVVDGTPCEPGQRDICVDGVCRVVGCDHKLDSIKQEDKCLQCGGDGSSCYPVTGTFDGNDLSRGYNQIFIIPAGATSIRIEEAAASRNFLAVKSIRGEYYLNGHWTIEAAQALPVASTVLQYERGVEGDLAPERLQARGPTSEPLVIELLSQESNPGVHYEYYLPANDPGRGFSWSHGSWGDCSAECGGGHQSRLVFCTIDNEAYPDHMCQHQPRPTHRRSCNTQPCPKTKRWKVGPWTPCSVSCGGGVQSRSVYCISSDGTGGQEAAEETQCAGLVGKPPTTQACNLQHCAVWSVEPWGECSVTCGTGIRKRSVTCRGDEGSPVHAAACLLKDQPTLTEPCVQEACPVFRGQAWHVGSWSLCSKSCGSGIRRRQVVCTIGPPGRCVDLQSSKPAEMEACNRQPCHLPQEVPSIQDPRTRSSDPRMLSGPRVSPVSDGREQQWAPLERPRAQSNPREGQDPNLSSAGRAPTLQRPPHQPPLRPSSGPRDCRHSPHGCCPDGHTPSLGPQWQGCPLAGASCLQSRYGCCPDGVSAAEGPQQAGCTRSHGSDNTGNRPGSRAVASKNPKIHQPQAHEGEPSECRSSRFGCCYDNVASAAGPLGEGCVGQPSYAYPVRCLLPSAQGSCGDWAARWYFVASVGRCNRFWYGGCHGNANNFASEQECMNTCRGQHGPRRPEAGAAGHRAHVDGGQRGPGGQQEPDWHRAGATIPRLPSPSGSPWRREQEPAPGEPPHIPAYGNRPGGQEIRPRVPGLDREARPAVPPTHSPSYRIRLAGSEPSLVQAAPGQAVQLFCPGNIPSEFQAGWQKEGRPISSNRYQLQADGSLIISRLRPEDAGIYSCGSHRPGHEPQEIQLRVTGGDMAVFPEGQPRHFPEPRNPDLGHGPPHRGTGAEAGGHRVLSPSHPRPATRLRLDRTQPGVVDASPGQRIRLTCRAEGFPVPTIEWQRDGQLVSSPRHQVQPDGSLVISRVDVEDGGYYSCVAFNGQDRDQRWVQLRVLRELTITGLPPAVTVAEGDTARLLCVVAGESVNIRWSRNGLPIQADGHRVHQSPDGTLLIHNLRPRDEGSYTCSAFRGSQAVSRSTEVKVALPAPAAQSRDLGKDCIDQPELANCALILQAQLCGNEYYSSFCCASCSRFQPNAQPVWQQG
UniProt Q9DB27: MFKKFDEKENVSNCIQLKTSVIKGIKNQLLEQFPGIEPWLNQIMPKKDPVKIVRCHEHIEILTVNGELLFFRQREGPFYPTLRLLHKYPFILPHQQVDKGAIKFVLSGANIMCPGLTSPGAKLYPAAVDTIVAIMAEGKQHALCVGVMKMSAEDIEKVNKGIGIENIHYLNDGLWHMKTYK
UniProt Q9DC23: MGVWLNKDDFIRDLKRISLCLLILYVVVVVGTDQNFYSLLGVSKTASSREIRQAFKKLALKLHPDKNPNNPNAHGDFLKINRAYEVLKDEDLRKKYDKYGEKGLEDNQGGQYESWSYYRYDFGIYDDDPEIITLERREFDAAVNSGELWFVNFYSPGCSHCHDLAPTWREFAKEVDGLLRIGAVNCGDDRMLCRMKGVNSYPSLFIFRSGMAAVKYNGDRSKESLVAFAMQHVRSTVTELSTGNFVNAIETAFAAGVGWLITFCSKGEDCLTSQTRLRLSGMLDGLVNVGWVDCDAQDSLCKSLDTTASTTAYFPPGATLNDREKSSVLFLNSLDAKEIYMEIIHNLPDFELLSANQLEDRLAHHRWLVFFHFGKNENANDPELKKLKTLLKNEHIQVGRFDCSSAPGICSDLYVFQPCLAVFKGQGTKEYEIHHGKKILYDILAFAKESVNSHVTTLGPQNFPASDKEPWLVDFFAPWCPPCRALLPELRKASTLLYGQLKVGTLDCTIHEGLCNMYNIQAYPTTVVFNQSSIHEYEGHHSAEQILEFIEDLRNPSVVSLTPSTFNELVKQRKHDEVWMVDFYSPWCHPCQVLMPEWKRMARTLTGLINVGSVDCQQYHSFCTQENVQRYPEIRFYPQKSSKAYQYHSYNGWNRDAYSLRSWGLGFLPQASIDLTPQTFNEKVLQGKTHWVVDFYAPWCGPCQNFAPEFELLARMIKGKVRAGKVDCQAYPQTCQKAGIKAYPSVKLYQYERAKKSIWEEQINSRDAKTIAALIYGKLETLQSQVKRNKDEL
UniProt Q9DBD0: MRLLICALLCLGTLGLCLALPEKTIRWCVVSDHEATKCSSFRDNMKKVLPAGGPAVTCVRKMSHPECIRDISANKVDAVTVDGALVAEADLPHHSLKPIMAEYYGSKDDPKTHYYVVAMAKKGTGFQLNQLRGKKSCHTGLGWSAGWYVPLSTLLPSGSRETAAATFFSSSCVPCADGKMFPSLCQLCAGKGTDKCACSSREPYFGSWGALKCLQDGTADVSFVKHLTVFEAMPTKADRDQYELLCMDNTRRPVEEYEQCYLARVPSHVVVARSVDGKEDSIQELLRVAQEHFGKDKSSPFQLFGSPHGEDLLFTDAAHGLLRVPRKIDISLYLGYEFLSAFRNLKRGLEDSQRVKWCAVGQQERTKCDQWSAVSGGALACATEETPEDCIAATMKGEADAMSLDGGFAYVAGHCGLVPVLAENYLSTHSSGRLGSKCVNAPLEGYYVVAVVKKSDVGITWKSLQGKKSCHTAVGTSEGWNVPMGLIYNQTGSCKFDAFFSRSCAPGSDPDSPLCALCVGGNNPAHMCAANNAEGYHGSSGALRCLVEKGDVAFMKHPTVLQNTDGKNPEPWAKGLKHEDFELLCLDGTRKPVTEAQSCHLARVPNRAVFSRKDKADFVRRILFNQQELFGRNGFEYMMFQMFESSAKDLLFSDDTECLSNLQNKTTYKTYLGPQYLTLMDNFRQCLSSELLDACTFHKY
UniProt Q9ER39: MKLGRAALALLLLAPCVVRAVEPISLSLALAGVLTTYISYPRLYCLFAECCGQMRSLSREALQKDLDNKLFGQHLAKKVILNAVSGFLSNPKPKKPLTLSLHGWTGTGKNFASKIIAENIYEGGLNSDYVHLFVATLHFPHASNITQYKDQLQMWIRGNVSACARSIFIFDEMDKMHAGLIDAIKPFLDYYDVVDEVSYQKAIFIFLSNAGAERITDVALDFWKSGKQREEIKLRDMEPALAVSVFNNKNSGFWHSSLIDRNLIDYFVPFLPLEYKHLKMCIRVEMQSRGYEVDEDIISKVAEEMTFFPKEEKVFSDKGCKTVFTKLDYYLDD
UniProt Q9ERR7, whole entry: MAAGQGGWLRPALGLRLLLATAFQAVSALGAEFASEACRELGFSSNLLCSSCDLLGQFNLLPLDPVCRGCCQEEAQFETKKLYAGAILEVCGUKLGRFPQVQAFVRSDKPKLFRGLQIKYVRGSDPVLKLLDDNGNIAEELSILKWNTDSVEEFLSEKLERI
UniProt Q9DCM0: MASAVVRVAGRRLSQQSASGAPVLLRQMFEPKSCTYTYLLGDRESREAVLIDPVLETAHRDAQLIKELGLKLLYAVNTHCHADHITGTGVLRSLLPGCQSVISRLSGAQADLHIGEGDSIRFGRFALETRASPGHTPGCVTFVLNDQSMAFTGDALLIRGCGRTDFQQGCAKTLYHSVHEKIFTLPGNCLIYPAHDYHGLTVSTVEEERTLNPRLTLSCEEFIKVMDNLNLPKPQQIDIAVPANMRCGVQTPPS
UniProt Q9DCS1: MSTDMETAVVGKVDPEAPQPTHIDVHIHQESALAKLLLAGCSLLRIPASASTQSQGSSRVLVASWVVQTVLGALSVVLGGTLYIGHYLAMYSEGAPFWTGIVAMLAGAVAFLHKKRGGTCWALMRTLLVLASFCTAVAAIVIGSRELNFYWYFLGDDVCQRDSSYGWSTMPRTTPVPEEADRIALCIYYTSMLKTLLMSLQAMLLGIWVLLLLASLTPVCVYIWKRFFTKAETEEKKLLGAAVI
UniProt Q9DCY0: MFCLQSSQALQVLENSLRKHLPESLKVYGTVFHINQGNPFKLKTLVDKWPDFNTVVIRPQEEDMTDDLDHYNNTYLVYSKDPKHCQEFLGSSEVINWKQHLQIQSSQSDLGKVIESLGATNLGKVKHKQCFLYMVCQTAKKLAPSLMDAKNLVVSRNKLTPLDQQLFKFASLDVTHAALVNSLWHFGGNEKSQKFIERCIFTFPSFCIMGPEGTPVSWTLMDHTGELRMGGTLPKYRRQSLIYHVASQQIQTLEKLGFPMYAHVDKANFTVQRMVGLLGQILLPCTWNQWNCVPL
UniProt Q9DBF1: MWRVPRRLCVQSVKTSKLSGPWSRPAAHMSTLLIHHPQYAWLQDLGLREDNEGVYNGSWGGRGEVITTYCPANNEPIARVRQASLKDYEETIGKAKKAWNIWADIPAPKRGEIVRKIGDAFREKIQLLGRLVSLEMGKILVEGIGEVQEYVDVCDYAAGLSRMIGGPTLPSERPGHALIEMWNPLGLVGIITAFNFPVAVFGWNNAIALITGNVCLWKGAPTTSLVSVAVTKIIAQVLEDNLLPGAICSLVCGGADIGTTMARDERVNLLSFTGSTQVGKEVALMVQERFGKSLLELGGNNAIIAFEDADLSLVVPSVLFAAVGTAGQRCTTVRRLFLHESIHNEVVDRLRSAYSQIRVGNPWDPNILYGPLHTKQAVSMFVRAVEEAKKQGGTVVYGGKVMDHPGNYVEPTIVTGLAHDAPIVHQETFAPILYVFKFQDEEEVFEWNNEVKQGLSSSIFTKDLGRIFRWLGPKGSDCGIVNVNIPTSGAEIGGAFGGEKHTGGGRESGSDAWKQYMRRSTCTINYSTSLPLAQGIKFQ
UniProt Q9DCA2, whole entry: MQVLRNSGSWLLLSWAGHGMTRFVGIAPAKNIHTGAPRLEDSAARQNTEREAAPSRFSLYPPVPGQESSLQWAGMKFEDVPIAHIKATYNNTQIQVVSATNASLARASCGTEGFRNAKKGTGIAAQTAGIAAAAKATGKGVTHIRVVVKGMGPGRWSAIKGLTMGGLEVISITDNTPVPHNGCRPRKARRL
UniProt Q9EQT3: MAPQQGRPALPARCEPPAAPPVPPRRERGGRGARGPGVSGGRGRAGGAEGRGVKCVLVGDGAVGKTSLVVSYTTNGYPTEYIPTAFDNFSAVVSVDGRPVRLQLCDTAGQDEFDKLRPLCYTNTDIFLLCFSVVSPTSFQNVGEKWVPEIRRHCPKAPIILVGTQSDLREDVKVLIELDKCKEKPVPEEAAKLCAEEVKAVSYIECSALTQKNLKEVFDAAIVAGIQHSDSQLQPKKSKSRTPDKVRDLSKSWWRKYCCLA
UniProt Q9DCT5: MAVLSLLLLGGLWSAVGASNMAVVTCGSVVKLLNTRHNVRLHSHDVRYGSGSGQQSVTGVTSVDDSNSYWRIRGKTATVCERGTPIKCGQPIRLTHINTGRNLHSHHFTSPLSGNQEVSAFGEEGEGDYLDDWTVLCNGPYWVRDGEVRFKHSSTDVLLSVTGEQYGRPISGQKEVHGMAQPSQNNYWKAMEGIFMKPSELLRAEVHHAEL

Target	log2 fold change
UniProt Q9EPB5 (peptide sequence: NIEHTLQVEASQK, peptide start residue: 147)	0.34
UniProt Q9DBK0 (peptide sequence: SGWEITTTLEK, peptide start residue: 367)	-0.772
UniProt Q9DAW6 (peptide sequence: NILSVVGTDALKK, peptide start residue: 134)	0.173
UniProt Q9DBE9 (peptide sequence: LACDFLAR, peptide start residue: 143)	0.54
UniProt Q9DCT6 (peptide sequence: FGDDLNHISCVIKER, peptide start residue: 57)	0.404
UniProt Q9DBN4 (peptide sequence: VGEDPATFKPPK, peptide start residue: 261)	0.27
UniProt Q9DB85 (peptide sequence: QAPSISDSEGK, peptide start residue: 100)	-0.145
UniProt Q9EQW7 (peptide sequence: ATEEIEDR, peptide start residue: 1301)	0.477
UniProt Q9EQS3 (peptide sequence: HHLGAATPENPEIELLR, peptide start residue: 50)	-0.139
UniProt Q9DAS9 (peptide sequence: RTVQQLR, peptide start residue: 16)	-0.899
UniProt Q9DCL4 (peptide sequence: LHIPVMVDQVVHCLAPQK, peptide start residue: 71)	-0.628
UniProt Q9EPX2 (peptide sequence: EGQDPNLSSAGR, peptide start residue: 591)	-0.442
UniProt Q9EPQ8 (peptide sequence: ESFGSAVPR, peptide start residue: 740)	0.395
UniProt Q9DB27 (peptide sequence: LLHKYPFILPHQQVDKGAIK, peptide start residue: 84)	-0.288
UniProt Q9DC69 (peptide sequence: TFAFTGPNR, peptide start residue: 262)	0.346
UniProt Q9DC29 (peptide sequence: LFSHLHELSLR, peptide start residue: 349)	0.107
UniProt Q9DC23 (peptide sequence: LETLQSQVK, peptide start residue: 779)	0.23
UniProt Q9ERI5 (peptide sequence: ADALQLSVK, peptide start residue: 49)	-0.669
UniProt Q9DC50 (peptide sequence: YLESVKPFANEDEYKK, peptide start residue: 35)	-0.699
UniProt Q9ER35 (peptide sequence: AQLHTTTLR, peptide start residue: 7)	0.0666

Some values from the entries so far:
Value of UniProt Q9ER35 (peptide sequence: AQLHTTTLR, peptide start residue: 7) under log2 fold change: 0.0666
Value of UniProt Q9DC23 (peptide sequence: LETLQSQVK, peptide start residue: 779) under log2 fold change: 0.23
Value of UniProt Q9EQS3 (peptide sequence: HHLGAATPENPEIELLR, peptide start residue: 50) under log2 fold change: -0.139

Continued.

Target	log2 fold change
UniProt Q9DBD0 (peptide sequence: VLPAGGPAVTCVR, peptide start residue: 48)	0.221
UniProt Q9ER39 (peptide sequence: KPLTLSLHGWTGTGK, peptide start residue: 95)	-0.202
UniProt Q9DBG3 (peptide sequence: LLSTDPVTAK, peptide start residue: 529)	-0.292
UniProt Q9ERR7 (peptide sequence: FPQVQAFVR, peptide start residue: 98)	0.0708
UniProt Q9DCM0 (peptide sequence: LLYAVNTHCHADHITGTGVLR, peptide start residue: 72)	-0.273
UniProt Q9DCS1 (peptide sequence: LLLAGCSLLR, peptide start residue: 36)	0.18
UniProt Q9DB91 (peptide sequence: ESLQTLMK, peptide start residue: 68)	0.196
UniProt Q9DCY0 (peptide sequence: VYGTVFHINQGNPFK, peptide start residue: 27)	-0.442
UniProt Q9DBF1 (peptide sequence: QGGTVVYGGK, peptide start residue: 391)	-0.201
UniProt Q9DCE5 (peptide sequence: KMATMSEK, peptide start residue: 369)	0.587
UniProt Q9DCA2 (peptide sequence: KGTGIAAQTAGIAAAAK, peptide start residue: 119)	-0.12
UniProt Q9DCS2 (peptide sequence: CLIFRKE, peptide start residue: 198)	0.142
UniProt Q9DB07 (peptide sequence: YTPQLIDLDHK, peptide start residue: 85)	0.613
UniProt Q9DBT3 (peptide sequence: KPLVFLER, peptide start residue: 103)	-0.121
UniProt Q9EQT3 (peptide sequence: CVLVGDGAVGK, peptide start residue: 55)	-0.207
UniProt Q9DB52 (peptide sequence: KCEMETDYQPKR, peptide start residue: 202)	-0.178
UniProt Q9DBR0 (peptide sequence: LAAEQFKK, peptide start residue: 507)	-0.131
UniProt Q9DCT5 (peptide sequence: AEVHHAEL, peptide start residue: 204)	-0.176
UniProt Q9DCE9 (peptide sequence: ALQFQDLIK, peptide start residue: 345)	0.2
UniProt Q9EQM6 (peptide sequence: FDFEQVTVKK, peptide start residue: 448)	0.825

From the supplement of paper PMC12819154, “High-throughput peptide-centric local stability assay extends protein–ligand identification to membrane proteins, tissues and bacteria” (Nature Structural & Molecular Biology, 2025)
